Results: publication PMC5057128
These are yes or no findings as the source states them, for the method shown. In cells and extracts the contact can be indirect. Some binding calls cover weakened binding; strength is not graded here.

Chains of the proteins cited; added tags and fusions are not shown.
UniProt P11440: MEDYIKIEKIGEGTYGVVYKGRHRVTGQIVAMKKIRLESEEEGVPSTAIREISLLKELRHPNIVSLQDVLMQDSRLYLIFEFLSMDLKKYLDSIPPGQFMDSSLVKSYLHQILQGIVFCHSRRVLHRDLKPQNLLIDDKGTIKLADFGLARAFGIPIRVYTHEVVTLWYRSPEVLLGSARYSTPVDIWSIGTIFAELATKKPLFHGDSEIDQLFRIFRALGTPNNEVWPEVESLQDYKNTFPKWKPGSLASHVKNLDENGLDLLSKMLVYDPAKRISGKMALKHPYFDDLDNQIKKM

B1: dynamin 2 (protein, UniProt P39054 1-870)
chain: MGNRGMEELIPLVNKLQDAFSSIGQSCHLDLPQIAVVGGQSAGKSSVLENFVGRDFLPRGSGIVTRRPLILQLIFSKTEYAEFLHCKSKKFTDFDEVRQEIEAETDRVTGTNKGISPVPINLRVYSPHVLNLTLIDLPGITKVPVGDQPPDIEYQIKDMILQFISRESSLILAVTPANMDLANSDALKLAKEVDPQGLRTIGVITKLDLMDEGTDARDVLENKLLPLRRGYIGVVNRSQKDIEGKKDIRAALAAERKFFLSHPAYRHMADRMGTPHLQKTLNQQLTNHIRESLPTLRSKLQSQLLSLEKEVEEYKNFRPDDPTRKTKALLQMVQQFGVDFEKRIEGSGDQVDTLELSGGARINRIFHERFPFELVKMEFDEKDLRREISYAIKNIHGVRTGLFTPDLAFEAIVKKQVVKLKEPCLKCVDLVIQELISTVRQCTSKLSSYPRLREETERIVTTYIREREGRTKDQILLLIDIEQSYINTNHEDFIGFANAQQRSTQLNKKRAIPNQGEILVIRRGWLTINNISLMKGGSKEYWFVLTAESLSWYKDEEEKEKKYMLPLDNLKIRDVEKGFMSNKHVFAIFNTEQRNVYKDLRQIELACDSQEDVDSWKASFLRAGVYPEKDQAENEDGAQENTFSMDPQLERQVETIRNLVDSYVAIINKSIRDLMPKTIMHLMINNTKAFIHHELLAYLYSSADQSSLMEESAEQAQRRDDMLRMYHALKEALNIIGDISTSTVSTPVPPPVDDTWLQNTSGHSPTPQRRPVSSVHPPGRPPAVRGPTPGPPLIPMPVGATSSFSAPPIPSRPGPQSVFANNDPFSAPPQIPSRPARIPPGIPPGVPSRRAPAAPSRPTIIRPAEPSLLD

Experiments:
[1] = molecular target: T1, dynamin 2 (mouse (endogenous in testis)) (UniProt P39054); assay: proximity ligation; Duolink in situ PLA on fixed isolated mouse germ cells (SPG, PS, RS, elongating spermatids); signal means <40 nm
T1 sequence: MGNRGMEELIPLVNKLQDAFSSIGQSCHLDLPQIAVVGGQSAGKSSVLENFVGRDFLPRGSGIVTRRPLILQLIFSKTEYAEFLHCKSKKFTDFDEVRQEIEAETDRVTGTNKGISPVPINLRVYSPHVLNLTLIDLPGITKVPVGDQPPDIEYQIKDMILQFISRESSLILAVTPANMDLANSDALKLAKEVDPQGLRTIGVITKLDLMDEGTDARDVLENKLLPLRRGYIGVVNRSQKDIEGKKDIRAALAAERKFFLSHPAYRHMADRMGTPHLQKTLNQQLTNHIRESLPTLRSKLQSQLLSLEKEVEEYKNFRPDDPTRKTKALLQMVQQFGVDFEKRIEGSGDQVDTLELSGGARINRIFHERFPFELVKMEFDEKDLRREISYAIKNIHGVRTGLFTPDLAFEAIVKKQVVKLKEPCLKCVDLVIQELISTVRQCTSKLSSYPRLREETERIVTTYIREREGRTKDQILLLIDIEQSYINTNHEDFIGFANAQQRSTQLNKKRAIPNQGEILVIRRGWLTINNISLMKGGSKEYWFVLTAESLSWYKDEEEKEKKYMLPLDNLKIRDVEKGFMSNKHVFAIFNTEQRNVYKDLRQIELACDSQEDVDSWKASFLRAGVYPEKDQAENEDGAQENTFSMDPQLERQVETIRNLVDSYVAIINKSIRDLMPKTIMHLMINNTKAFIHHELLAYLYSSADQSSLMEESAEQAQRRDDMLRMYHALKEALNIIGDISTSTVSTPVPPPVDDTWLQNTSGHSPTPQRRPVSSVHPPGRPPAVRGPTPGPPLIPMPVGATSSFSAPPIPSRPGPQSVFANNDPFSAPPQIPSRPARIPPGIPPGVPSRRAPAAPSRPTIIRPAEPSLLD

[2] = molecular target: T1, dynamin 2 (mouse (endogenous in testis)); assay: co-IP; 10 ug primary antibody cross-linked (DTSSP) to Dynabeads Protein G, incubated with whole testis lysate (CHAPS lysis buffer, 137 mM NaCl, pH 7.0) at 4 °C overnight; denaturing elution, immunoblot; rabbit IgG IP as control
[3] = molecular target: Calcineurin (PPP3CA) (mouse (endogenous in testis)) (UniProt P63328); assay: as above
[4] = molecular target: CDK1 (mouse (endogenous in testis)) (UniProt P11440); assay: as above
[5] = molecular target: Calcineurin (PPP3CA) (mouse (endogenous in testis)) (UniProt P63328); assay: proximity ligation; Duolink in situ PLA on fixed isolated mouse germ cells (SPG, PS, RS, elongating spermatids); signal means <40 nm

binding [1] | binding [2] | binding [3] | binding [4] | binding [5] | Molecule
binds | binds |  |  |  | CDK1 (from UniProt P11440 1-297) (enzyme)
 |  | binds | binds | binds | B1
